According to publication PMC5784528:
These are yes or no findings as the source states them, for the method shown. In cells and extracts the contact can be indirect. Some binding calls cover weakened binding; strength is not graded here.

The chains behind the UniProt entries cited, without tags or fusion partners.
UniProt Q16513: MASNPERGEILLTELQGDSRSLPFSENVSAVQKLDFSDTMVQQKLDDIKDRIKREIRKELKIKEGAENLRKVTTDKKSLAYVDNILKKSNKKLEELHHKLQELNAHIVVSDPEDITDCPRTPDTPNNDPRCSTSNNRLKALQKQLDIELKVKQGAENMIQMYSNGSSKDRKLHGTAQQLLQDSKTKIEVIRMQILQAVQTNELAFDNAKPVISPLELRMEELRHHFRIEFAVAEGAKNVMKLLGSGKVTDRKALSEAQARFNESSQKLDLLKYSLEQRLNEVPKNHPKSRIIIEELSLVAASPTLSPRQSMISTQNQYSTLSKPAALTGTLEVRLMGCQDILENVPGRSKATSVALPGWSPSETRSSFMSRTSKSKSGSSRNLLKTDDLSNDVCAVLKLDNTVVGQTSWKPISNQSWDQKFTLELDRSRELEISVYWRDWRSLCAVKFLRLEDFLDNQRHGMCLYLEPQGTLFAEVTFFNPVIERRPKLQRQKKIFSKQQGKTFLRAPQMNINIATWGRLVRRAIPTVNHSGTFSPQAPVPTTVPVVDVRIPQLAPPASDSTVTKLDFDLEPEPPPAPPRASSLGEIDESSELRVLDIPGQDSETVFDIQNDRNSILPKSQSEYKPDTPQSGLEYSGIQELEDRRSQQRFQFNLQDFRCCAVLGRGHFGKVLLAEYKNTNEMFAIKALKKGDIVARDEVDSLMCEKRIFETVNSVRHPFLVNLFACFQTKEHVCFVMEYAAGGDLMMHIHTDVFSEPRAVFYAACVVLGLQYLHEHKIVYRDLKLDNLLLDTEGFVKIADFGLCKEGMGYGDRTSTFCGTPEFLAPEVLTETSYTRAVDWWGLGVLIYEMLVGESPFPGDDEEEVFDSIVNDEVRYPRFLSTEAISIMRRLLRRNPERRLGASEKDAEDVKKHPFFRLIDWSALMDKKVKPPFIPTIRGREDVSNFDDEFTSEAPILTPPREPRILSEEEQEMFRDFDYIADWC

Biological target: T1, Dual specificity protein phosphatase 6 (DUSP6), endogenous in colon cancer cell lines (human (endogenous in HCT116, SW480, HT-29)) (UniProt Q16828)
T1 sequence: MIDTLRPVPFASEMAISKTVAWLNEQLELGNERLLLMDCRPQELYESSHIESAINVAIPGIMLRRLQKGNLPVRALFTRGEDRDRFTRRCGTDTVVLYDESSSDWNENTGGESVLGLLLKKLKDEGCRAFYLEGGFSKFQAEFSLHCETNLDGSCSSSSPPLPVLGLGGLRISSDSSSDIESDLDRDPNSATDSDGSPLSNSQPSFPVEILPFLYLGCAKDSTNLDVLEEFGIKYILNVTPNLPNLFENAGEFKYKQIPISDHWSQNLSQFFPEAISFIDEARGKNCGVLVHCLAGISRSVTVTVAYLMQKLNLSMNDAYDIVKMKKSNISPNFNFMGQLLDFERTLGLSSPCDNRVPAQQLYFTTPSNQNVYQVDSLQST
Experiment: co-IP; endogenous proteins in lysates of HCT116, SW480 and HT-29 cells; supernatants incubated with anti-DUSP6, anti-PKN2 or control IgG at 4 °C overnight, protein A/G agarose beads 2 h; western blot

binding: binds
Substance: Protein kinase N2 (PKN2), endogenous in colon cancer cell lines (from UniProt Q16513 1-984)
